The text below walks through data of PubChem BioAssay AID1508600 (Functional Genomics Laboratory (NCATS/FGL), 2020).

In all, about 53,000 sequences went through this assay and about 3,700 (7%) were called active.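 Rule for the calls: active = gene knockdowns whose robust z-score for IL-1 alpha signal is at least 2 or at most -2, so actives lie on both sides; inactive = the rest.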 The list shows a part of the results.

A short description of the test: Components of the Cytosolic LPS Sensing Pathway: Gene Identification via Genome-wide siRNA Screen.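 Note: robust z of the log signal after scaling to non-targeting control siRNA wells of the plate.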 As to conditions: RAW264.7 macrophages, IL-1a HTRF, actives lie on both sides, screened at 100 nM (by protocol), cells primed 5 h with Pam3CSK4 first. Summed up:
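Cells (RAW264.7, 1×10^4 per well) were transfected with siRNA at 100 nM and cultured 48h at 37 degrees C. Pam3CSK4 was added for 5 hours; LipidA transfection followed for 24 hour. IL-1a was then measured by HTRF.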
Turning to GGGCACCAGUGGUUAUUAATT against Chst14, the z-score is inactive: 0.232. As for GCUGAUAUGCUAUUGUAGATT against Defa5, the z-score was inactive: 0.0696. With CCUGGAGAGCAUUGACAUCTT against Irx1, the z-score is inactive: 0.624. With CCUUAUGGUGCGCAUUAAATT against Kcnq1 the figure was inactive: -1.1; with GCUACGUCUUUUUUAGGGCTT against Mrap, inactive: 0.373; with GGCAUUGUGAAAUCCUAUUTT against Lhx5, inactive: -1.31. For the sequence AAAGACUGUGACCUCUGGGTT against Tgoln2, the z-score was inactive: 0.711. In the case of CCCACUGUACAUUUGUAAATT against Prss27, the z-score was inactive: 0.447. With GGCUCCUGGAAUUCUUACGTT against Snx11 the figure was inactive: -0.648; with GGAAGACCCUAAUCUAGUCTT against Cox5b, active: 2.1. GGGAUGUGUAUUUAAUUACTT against Nr6a1: the z-score is inactive: -0.764. Regarding GGUGAAUUCUCAUGCAUGGTT against Timp2, the z-score is inactive: -0.513. As for GGAAACAAGGGACUCUGUATT against Col4a4, the z-score is inactive: 0.906.

As for CCCUGUUGAUGAACAAAUCTT against Ddt, the z-score is inactive: -0.262. On to GGGAAUCGGUGGAUUUGGATT against Ier3ip1, for which the z-score was inactive: -0.969. As to GCCUCUGGUGGAAGUAUACTT against Sec14l3, the z-score is inactive: -0.918. Turning to “UCAUUGGUCCAGCCUAUAGTT against A330070K13Rik”, the z-score was inactive: -0.534. For GCAUGAAAAGCCUCUAUAUTT against Cxcl15, the z-score was inactive: 0.33.

As for CGUUUUUAUGAGGAGGCCUTT against N4bp3, the z-score is inactive: -0.897. With GGCUUGCAAAGUGAAUCCUTT against Gls2, the z-score was inactive: -0.417.

Take CCAUCUCAUCCCACGACACTT against Mrgprx1: the z-score is inactive: -0.334. Consider GCUGCUAAGGAAUUUAAAATT against Topors, for which the z-score is inactive: 0.971. To GUUGGACUAAGCGACCUUGTT against Rps29 belongs inactive: -1.35; to “GGUGUUUCAUAAGAAGGAATT against 1700010H22Rik”, inactive: -1.01; to GGAAACUCCGUCCCAAUUGTT against Trim68, inactive: 1.39. For the sequence CGCAAAAUGCUUACCUGCUTT against Mfsd2a, the z-score was inactive: -0.274. With GGAUCCCAAGUUCAAAGCCTT against Rfxap, the z-score is active: 2.07.

GGAAAUAUCCUAAACAGAATT against Gdpd2: the z-score is inactive: -0.864.

For CCUCUCUGAAAACAUGUCUTT against Sntb2, the z-score is inactive: 0.683. Take CCUCGGUAUUAACGUGGAATT against Dmrta2: the z-score is inactive: -0.818. Consider GCUCCAAAGAGAUUGAGACTT against Ccdc65, for which the z-score is inactive: -1.63.

GGCCAAAGUGCAGAUGAAATT against Klhl38: the z-score is inactive: -0.917. To GGAAGCCCUUAUGGACGAATT against Ang2 belongs inactive: 0.751; to GGAGAUACAGGAUAUUAUUTT against Nme5, inactive: -0.0528. With GGACUGUGCAUUUUCAGGUTT against Sumo1 the figure was inactive: 0.258; with GGCUACAUUAGUGCCUGGUTT against Trp53rkb, inactive: 0.469; with CCGGCUUUGAAGUCAUUACTT against Slc4a3, inactive: 1.92. As to CCAUCUAUUACGGAACGGGTT against Olfr324, the z-score is inactive: 1.36. With GGCAGGAAAACAAAAGGGATT against Cobll1 the figure was inactive: -0.384. GGCUUCCAAAACAAAUCAATT against Rgn: the z-score is inactive: 0.857. As to CGAGAUUAUCAGUCAAUUGTT against Tex24, the z-score is active: 2.02. With CCCUGAUCUUGUGAGAAUUTT against Gmnc, the z-score was inactive: -1.83. With CCUGACUUCUACUAAAGAATT against Xxylt1 the figure was inactive: 1.1; with GGUUACCUGUAGAUGAUUCTT against Slc4a1ap, inactive: -0.861. With GGUACAGAACAUGUUCUAATT against Klf4, the z-score is inactive: 1.18. Consider GCAUUUUAGAAGGUUAUCGTT against Dmrt2, for which the z-score is inactive: -1.23. To GUAGGAUAUACCAUCUACATT against Olfr700 belongs inactive: -0.708.

As for GCAUUCAUGAAAGUGUUAGTT against Olfr164, the z-score is inactive: 0.0366. With GGUGAAGUUACAGUCAAAUTT against Nolc1 the figure was active: 2.54. Consider GGUAGACUAUCUGGAGACATT against Olfml3, for which the z-score was inactive: 0.553. Turning to GGUAUCCUUGCUUUGUGACTT against Gm5111, the z-score is inactive: 0.37.

In the case of GGACCUAUUUCUCUGCUCCTT against Col6a6, the z-score is inactive: 0.457. With GGAGUAUGUCCAUUGUCACTT against Vmn1r230 the figure was active: -2.54; with GGCACAAGAGCAAAGGCUUTT against Gmppb, inactive: -0.575; with GGUCAUGAACCUCAUCAUCTT against Nckap1l, inactive: -0.552. Take GGACAAGUAUGUCACAGCGTT against Kcnh2: the z-score was inactive: -0.705. As to GGUCCUCAUCUGGAACCUGTT against Coro2b, the z-score is inactive: -0.279. Take GGGUCAUAAAAGUUGUUCUTT against Mtmr4: the z-score is inactive: -0.417. With GGGCACUUAUGCAAGCAAATT against Pcyt1b the figure was inactive: 0.204; with “GGAGAAUGACUAGGUAAUCTT against A130010J15Rik”, inactive: 1.27. To GGAGAGCCCUAUAGAAGUUTT against Zfp639 belongs inactive: 0.0696. On to GCUAUUGGUGCUUUUAUACTT against Olfr1198, for which the z-score is inactive: 1.28. Turning to GGAGAUGUUGGACUUCAUGTT against Nxnl2, the z-score was active: -2.42. Take GGAUACGAUGUGCUAAGGUTT against Rars: the z-score is inactive: 1.51. To GCAAUUAGGACUUCAAGAGTT against Snx14 belongs inactive: -0.784; to GGAUUUAGGGACAACACAATT against Nol4l, inactive: -0.981. With GCUCGAACUGUGUUCUAACTT against Polr3b the figure was inactive: 1.82; with GCUUCUGUUAUGAGGCUCATT against Hif1a, active: -2.52.
